At least one peptide structure holds a part that was inferred or is arguable (an end, a ring closure or a residue).
Assay: Prolyl amide cis/trans equilibrium of tetrapeptides by NMR in various solvents
Type: physicochemical
Protocol: Conformational analysis of tetrapeptides 2-11 to 2-13 and 2-16 using NMR. […] The lower tendency of aggregation of glycosylated peptides has previously been reported (runkel et al., 1998). The NMR spectra of all tetrapeptides were measured at the same concentration (8 mM). Intramolecular hydrogen bonding was evaluated by temperature coefficient experiments in DMSO-d6 or H2O/D2O (9/1). Because exchangeable protons engaged in intramolecular hydrogen bonds are typically not influenced by strong hydrogen-bonding solvents (Kopple et al., 1969). The prolyl N-terminal geometry and turn structure were investigated by ROESY experiments (Misicka et al., 1998).
Solvent effects. In addition, the influence of different solvents on the geometry of prolyl N-terminus was studied (Table 14). […] In contrast, peptide 2-12 and reference peptide 2-16 display a solvent effect.

## COCOC[C@H]1C[C@]2(O[C@H](COCOC)[C@@H](OCOC)[C@H](OCOC)[C@H]2OCOC)[C@@H](C(=O)N[C@H](C(=O)N(C)C)C(C)C)N1C(=O)[C@@H](Cc1ccccc1)NC(=O)[C@H](CC(C)C)NC(C)=O [Compound 2-11, Ac-Leu-D-Phe-5′(R)-(MOM)GlcTSPro-Val-NMe2]
CD2Cl2, 500 MHz NMR at 25° C.
  Equilibrium constant Kt/c: 0.39
CD3OD, 500 MHz NMR at 25° C.
  Equilibrium constant Kt/c: 0.33
DMSO-d6, 500 MHz NMR at 25° C.
  Equilibrium constant Kt/c: 0.30
In CD2Cl2
  Prolyl amide cis population: 72%
  Prolyl amide trans population: 28%

## COCOC[C@@H]1C[C@]2(O[C@H](COCOC)[C@@H](OCOC)[C@H](OCOC)[C@H]2OCOC)[C@@H](C(=O)N[C@H](C(=O)N(C)C)C(C)C)N1C(=O)[C@@H](Cc1ccccc1)NC(=O)[C@H](CC(C)C)NC(C)=O [Compound 2-12, Ac-Leu-D-Phe-5′(S)-(MOM)GlcTSPro-Val-NMe2]
CD2Cl2, 500 MHz NMR at 25° C.
  Equilibrium constant Kt/c: 13.28
CD3OD, 500 MHz NMR at 25° C.
  Equilibrium constant Kt/c: 3.00
DMSO-d6, 500 MHz NMR at 25° C.
  Equilibrium constant Kt/c: 1.44
In CD2Cl2
  Prolyl amide trans population: 93%

## CC(=O)N[C@@H](CC(C)C)C(=O)N[C@H](Cc1ccccc1)C(=O)N1[C@@H](CO)C[C@]2(O[C@H](CO)[C@@H](O)[C@H](O)[C@H]2O)[C@H]1C(=O)N[C@H](C(=O)N(C)C)C(C)C [Compound 2-13, Ac-Leu-D-Phe-5′(R)-GlcTSPro-Val-NMe2]
CD3OD, 500 MHz NMR at 25° C.
  Equilibrium constant Kt/c: 0.14
D2O, 500 MHz NMR at 25° C.
  Equilibrium constant Kt/c: 0.10
DMSO-d6, 500 MHz NMR at 25° C.
  Equilibrium constant Kt/c: 0.67
In H2O/D2O (9/1)
  Prolyl amide cis population: 91%

From US20100256333A1, “Peptide-Based Beta Turn Mimetics” (UNIVERSITY OF MANITOBA, priority 2009, published 2010)
